Some results were stated once for a whole list of compounds, not compound by compound.
Test system: E. coli expressing TEM-1+CTX-M-15, CTX-M-15, and KPC-2+SHV-12
Experiment: Murine ascending UTI model, three strains
Type: in vivo, mice
Conditions: added to ceftibuten at 3, 10, 30, 100, and 300 mg/kg, SC every 12 hours for 3 days

## CCC(=O)N[C@H]1Cc2cccc(C(=O)O)c2OB1O [Compound 2, (R)-2-hydroxy-3-propionamido-3,4-dihydro-2H-benzo[e][1,2]oxaborinine-8-carboxylic acid]
  bacterial titers lower than ceftibuten alone, kidneys: up to 2 log10 CFU/g
